PubChem BioAssay AID652272 | Drosophila RNAi Screening Center | 2013
The deposit covers about 21,000 reagents; shown is a random part of those that have a named target and a result. In the full data, 503 (2.4%) are marked active. 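Raw plate light values, not normalised; calls rest on replicate z-scores that were not deposited; hits include reporter decreases as well as increases.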 Not given: the amount of reagent, the time to read-out.

- Aim: 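Genes whose knock-down decreases or increases Hedgehog reporter output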 (primary screen)
- Cells: Drosophila clone 8 (Cl8) cells
- Knock-down reagent: long dsRNA against Drosophila genes
- Measured: 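Plate reader light from a firefly reporter under a ptc promoter fragment that responds to Hedgehog, with Renilla light as transfection reference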
- Direction: firefly Hh reporter signal: higher = more ptc reporter light; Renilla reference signal: higher = more Renilla control light
- Hit rule: 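Called a hit if the two-replicate mean z-score lies below -2 or above +3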
- Calls: active = hit: reporter lowered or raised; inactive = not a hit

The first 5 entries, ahead of the listing:
Gene	amplicon	firefly Hh reporter signal, replicate 1	firefly Hh reporter signal, replicate 2	firefly Hh reporter signal, replicate 3	Renilla reference signal, replicate 1	Renilla reference signal, replicate 2	Outcome
Mtk	DRSC07475	1.35e5	83991		3161	5426	inactive
scb	DRSC05542	1.93e5	2.47e5		5076	11488	inactive
scb	DRSC07678	71483	61570		1332	4226	inactive
GstE5	DRSC06675	1.46e5	85251		4180	6419	inactive
CG14326	DRSC14805	93638	75382		2257	265	inactive

The list itself, from the start:
Gene	amplicon	firefly Hh reporter signal, replicate 1	firefly Hh reporter signal, replicate 2	firefly Hh reporter signal, replicate 3	Renilla reference signal, replicate 1	Renilla reference signal, replicate 2	Outcome
Mtk	DRSC07475	1.35e5	83991		3161	5426	inactive
scb	DRSC05542	1.93e5	2.47e5		5076	11488	inactive
scb	DRSC07678	71483	61570		1332	4226	inactive
GstE5	DRSC06675	1.46e5	85251		4180	6419	inactive
CG14326	DRSC14805	93638	75382		2257	265	inactive
Jhbp4	DRSC14222	67253	79997		1754	5237	inactive
CG7550	DRSC10875	59149	63003		5654	4690	inactive
Dhdds	DRSC17756	57104	2.33e5		2132	8626	inactive
dco	DRSC16929	94445	68744		1857	1865	inactive
CG12992	DRSC19512	67769	2.30e5		1901	7653	inactive
SMSr	DRSC10998	1.62e5	1.24e5		6645	4853	inactive
SMSr	DRSC10999	71873	46892		9493	3424	inactive
tzn	DRSC11755	1.35e5	57958		5654	2384	inactive
CG12177	DRSC19437	1.51e5	4.68e5	3.83e5	4738	2840	inactive
JYalpha	DRSC17224	73281	1.95e5		2241	8242	inactive
Snoo	DRSC01008	5.58e5	2.42e5		28056	9712	inactive
Snoo	DRSC03004	1.01e5	79622		3504	3269	inactive
Snoo	DRSC03035	96459	61492		2386	4969	inactive
CG18547	DRSC15345	1.08e5	73045		3763	1056	inactive
Rab8	DRSC11261	1.14e5	88377		4193	3859	inactive
Cyp4e2	DRSC07371	71779	39197		2853	1941	inactive
Sms	DRSC10408	71943	46872	42762	4310	2889	inactive
Zpr1	DRSC18432	95216	79008		2272	1911	inactive
Ykt6	DRSC17970	77174	85606		1751	2019	inactive
CG15208	DRSC19654	70368	73376		1641	1594	inactive
bma	DRSC09896	26378	34352	50070	3549	3289	inactive
bma	DRSC10164	23680	54391	58418	5312	3707	inactive
CG6462	DRSC10641	53867	46336		5109	3698	inactive
dare	DRSC07602	76428	60870		2992	2304	inactive
CG15027	DRSC19608	1.18e5	2.67e5		3953	9270	inactive
Nmda1	DRSC07479	88529	48544		3689	1972	inactive
Spn47C	DRSC07030	71971	60054		3139	2425	inactive
CG31100	DRSC14453	95521	1.05e5		3675	3105	inactive
CG31100	DRSC14455	94506	1.08e5		3667	3325	inactive
Npc2c	DRSC15523	74071	1.17e5		2916	3480	inactive
CG13186	DRSC06311	1.20e5	71937		2569	5328	inactive
CG15431	DRSC00446	1.11e5	50013		2896	5067	inactive
TpnC47D	DRSC07564	1.22e5	56752		3371	4833	inactive
CG42264	DRSC18074	53811	1.84e5		2307	6673	inactive
CG42264	DRSC18075	69904	1.80e5		2844	6054	inactive
